In doi:10.1101/2022.06.15.496232:
No constants are given. Whether binding was seen depends on the method and setting. Binding seen in cells or lysates may run through a third protein.

Sequences of proteins named here, by UniProt entry; tags and fusion partners are left off. A change or cut given only in a name is not applied to a line headed by its entry. Residues count along the entry.
UniProt Q6QNK2, whole entry, looked up, stated change not applied: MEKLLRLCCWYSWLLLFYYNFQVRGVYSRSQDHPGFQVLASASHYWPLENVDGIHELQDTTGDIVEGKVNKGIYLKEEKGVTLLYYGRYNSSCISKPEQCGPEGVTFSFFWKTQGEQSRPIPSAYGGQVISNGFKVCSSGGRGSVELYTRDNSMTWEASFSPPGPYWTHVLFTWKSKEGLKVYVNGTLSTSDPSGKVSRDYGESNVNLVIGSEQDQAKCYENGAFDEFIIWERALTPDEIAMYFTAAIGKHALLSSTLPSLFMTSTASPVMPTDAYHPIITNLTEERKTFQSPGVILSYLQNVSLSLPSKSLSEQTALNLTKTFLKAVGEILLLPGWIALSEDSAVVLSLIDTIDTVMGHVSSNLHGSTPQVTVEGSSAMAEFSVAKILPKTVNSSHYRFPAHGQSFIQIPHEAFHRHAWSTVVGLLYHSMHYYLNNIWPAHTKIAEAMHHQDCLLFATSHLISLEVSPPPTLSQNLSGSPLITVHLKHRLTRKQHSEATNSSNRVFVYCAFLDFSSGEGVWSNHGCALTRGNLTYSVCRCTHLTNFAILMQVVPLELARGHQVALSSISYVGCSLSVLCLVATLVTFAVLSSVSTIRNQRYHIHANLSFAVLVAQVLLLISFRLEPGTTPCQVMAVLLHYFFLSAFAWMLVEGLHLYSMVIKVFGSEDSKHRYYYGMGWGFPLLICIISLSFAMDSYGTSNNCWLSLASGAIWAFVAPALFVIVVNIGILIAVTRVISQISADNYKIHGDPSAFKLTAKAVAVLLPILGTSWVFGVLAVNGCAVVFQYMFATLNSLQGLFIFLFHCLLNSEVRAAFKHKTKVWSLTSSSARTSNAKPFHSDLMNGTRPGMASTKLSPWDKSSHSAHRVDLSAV
UniProt Q6UX71, 31-529: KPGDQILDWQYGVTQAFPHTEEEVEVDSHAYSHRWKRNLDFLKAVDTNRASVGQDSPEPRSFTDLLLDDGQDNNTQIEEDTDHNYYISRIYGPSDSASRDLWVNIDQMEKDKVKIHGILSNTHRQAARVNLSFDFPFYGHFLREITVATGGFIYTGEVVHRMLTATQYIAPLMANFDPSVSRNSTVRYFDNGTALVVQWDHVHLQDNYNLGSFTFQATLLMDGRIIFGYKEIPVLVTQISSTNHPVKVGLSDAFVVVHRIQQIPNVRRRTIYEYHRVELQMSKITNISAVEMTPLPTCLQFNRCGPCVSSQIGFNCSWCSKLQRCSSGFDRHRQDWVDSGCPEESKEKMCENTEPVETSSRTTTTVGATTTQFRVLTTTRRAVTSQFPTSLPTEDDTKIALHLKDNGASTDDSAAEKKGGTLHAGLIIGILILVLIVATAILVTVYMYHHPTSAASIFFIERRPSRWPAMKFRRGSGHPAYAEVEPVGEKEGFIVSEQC

Target: TwinStrep-tagged uncleavable GPR133-H543R (in HEK293T cells) (UniProt Q6QNK2)
Test: pull-down

## Myc-tagged PLXDC2 (from UniProt Q6UX71 31-529)
  binding: no binding
